# Source: paper PMC10744335
# No constants are given. Whether binding was seen depends on the method and setting. Binding seen in cells or lysates may run through a third protein. Here binding means that the protein was enriched with, or labelled near, the bait; the list need not be complete. Where a sequence is shown, tags or fusion partners need not be part of it.
# T1: GST-tagged bacterially expressed TIMAP protein (human) (UniProt Q96T49)
# T1 sequence: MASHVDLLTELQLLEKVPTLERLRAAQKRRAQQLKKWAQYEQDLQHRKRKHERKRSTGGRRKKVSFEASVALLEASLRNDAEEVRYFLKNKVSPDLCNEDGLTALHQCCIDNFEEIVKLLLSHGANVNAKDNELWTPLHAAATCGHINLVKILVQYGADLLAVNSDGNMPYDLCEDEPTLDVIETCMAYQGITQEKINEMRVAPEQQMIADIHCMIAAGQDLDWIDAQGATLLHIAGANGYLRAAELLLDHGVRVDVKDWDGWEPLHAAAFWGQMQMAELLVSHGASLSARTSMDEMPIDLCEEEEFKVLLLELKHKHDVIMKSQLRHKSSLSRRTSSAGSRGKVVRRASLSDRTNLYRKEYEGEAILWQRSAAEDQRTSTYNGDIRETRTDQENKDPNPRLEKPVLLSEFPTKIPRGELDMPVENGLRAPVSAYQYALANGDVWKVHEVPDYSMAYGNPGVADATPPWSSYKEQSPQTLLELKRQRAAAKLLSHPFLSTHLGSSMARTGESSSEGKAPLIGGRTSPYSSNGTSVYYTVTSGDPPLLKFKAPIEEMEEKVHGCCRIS
# Molecular target: T1, GST-tagged bacterially expressed TIMAP protein (human)
# Experiment: affinity purification with mass spectrometry; GST–TIMAP pull-down from the nuclear fraction of undifferentiated SH-SY5Y cells; bound proteins separated on SDS-PAGE, MS/MS analysis; only the target purified
row,binding,Binder
1,binds,"5-3 exoribonuclease 2 (protein, UniProt Q9H0D6 1-950) MGVPAFFRWLSRKYPSIIVNCVEEKPKECNGVKIPVDASKPNPNDVEFDNLYLDMNGIIHPCTHPEDKPAPKNEDEMMVAIFEYIDRLFSIVRPRRLLYMAIDGVAPRAKMNQQRSRRFRASKEGMEAAVEKQRVREEILAKGGFLPPEEIKERFDSNCITPGTEFMDNLAKCLRYYIADRLNNDPGWKNLTVILSDASAPGEGEHKIMDYIRRQRAQPNHDPNTHHCLCGADADLIMLGLATHEPNFTIIREEFKPNKPKPCGLCNQFGHEVKDCEGLPREKKGKHDELADSLPCAEGEFIFLRLNVLREYLERELTMASLPFTFDVERSIDDWVFMCFFVGNDFLPHLPSLEIRENAIDRLVNIYKNVVHKTGGYLTESGYVNLQRVQMIMLAVGEVEDSIFKKRKDDEDSFRRRQKEKRKRMKRDQPAFTPSGILTPHALGSRNSPGSQVASNPRQAAYEMRMQNNSSPSISPNTSFTSDGSPSPLGGIKRKAEDSDSEPEPEDNVRLWEAGWKQRYYKNKFDVDAADEKFRRKVVQSYVEGLCWVLRYYYQGCASWKWYYPFHYAPFASDFEGIADMPSDFEKGTKPFKPLEQLMGVFPAASGNFLPPSWRKLMSDPDSSIIDFYPEDFAIDLNGKKYAWQGVALLPFVDERRLRAALEEVYPDLTPEETRRNSLGGDVLFVGKHHPLHDFILELYQTGSTEPVEVPPELCHGIQGKFSLDEEAILPDQIVCSPVPMLRDLTQNTVVSINFKDPQFAEDYIFKAVMLPGARKPAAVLKPSDWEKSSNGRQWKPQLGFNRDRRPVHLDQAAFRTLGHVMPRGSGTGIYSNAAPPPVTYQGNLYRPLLRGQAQIPKLMSNMRPQDSWRGPPPLFQQQRFDRGVGAEPLLPWNRMLQTQNAAFQPNQYQMLAGPGGYPPRRDDRGGRQGYPREGRKYPLPPPSGRYNWN"
2,binds,"ATP synthase subunit O, mitochondrial (protein, UniProt P48047 24-213) FAKLVRPPVQVYGIEGRYATALYSAASKQNKLEQVEKELLRVAQILKEPKVAASVLNPYVKRSIKVKSLNDITAKERFSPLTTNLINLLAENGRLSNTQGVVSAFSTMMSVHRGEVPCTVTSASPLEEATLSELKTVLKSFLSQGQVLKLEAKTDPSILGGMIVRIGEKYVDMSVKTKIQKLGRAMREIV"
3,binds,"Trans-2,3-enoyl-CoA reductase-like (protein, UniProt Q5HYJ1 1-363) MFKRHKSLASERKRALLSQRATRFILKDDMRNFHFLSKLVLSAGPLRPTPAVKHSKTTHFEIEIFDAQTRKQICILDKVTQSSTIHDVKQKFHKACPKWYPSRVGLQLECGGPFLKDYITIQSIAASSIVTLYATDLGQQVSWTTVFLAEYTGPLLIYLLFYLRIPCIYDGKESARRLRHPVVHLACFCHCIHYIRYLLETLFVHKVSAGHTPLKNLIMSCAFYWGFTSWIAYYINHPLYTPPSFGNRQITVSAINFLICEAGNHFINVMLSHPNHTGNNACFPSPNYNPFTWMFFLVSCPNYTYEIGSWISFTVMTQTLPVGIFTLLMSIQMSLWAQKKHKIYLRKFNSYIHRKSAMIPFIL"
4,binds,"Heterogeneous nuclear ribonucleoprotein A0 (protein, UniProt Q13151 1-305) MENSQLCKLFIGGLNVQTSESGLRGHFEAFGTLTDCVVVVNPQTKRSRCFGFVTYSNVEEADAAMAASPHAVDGNTVELKRAVSREDSARPGAHAKVKKLFVGGLKGDVAEGDLIEHFSQFGTVEKAEIIADKQSGKKRGFGFVYFQNHDAADKAAVVKFHPIQGHRVEVKKAVPKEDIYSGGGGGGSRSSRGGRGGRGRGGGRDQNGLSKGGGGGYNSYGGYGGGGGGGYNAYGGGGGGSSYGGSDYGNGFGGFGSYSQHQSSYGPMKSGGGGGGGGSSWGGRSNSGPYRGGYGGGGGYGGSSF"
5,binds,"Serine/arginine-rich splicing factor 3 (protein, UniProt P84103 1-164) MHRDSCPLDCKVYVGNLGNNGNKTELERAFGYYGPLRSVWVARNPPGFAFVEFEDPRDAADAVRELDGRTLCGCRVRVELSNGEKRSRNRGPPPSWGRRPRDDYRRRSPPPRRRSPRRRSFSRSRSRSLSRDRRRERSLSRERNHKPSRSFSRSRSRSRSNERK"
